According to patent US9498387B2, “Absorbent article having bent sections” (UNICHARM CORPORATION, priority 2012, dated 2016):

Experiments:
[1] = Rewetting rate of sanitary napkin with top sheet coated with blood modifying agent (Example 1); details: horse EDTA blood 3 g dropped twice; agent coated at about 5 g/m^2; filter paper 30 g/cm^2, 1 minute
[2] = Absorbent body migration rate (Example 1); details: time after the second dropping of horse EDTA blood; agent coated at about 5 g/m^2

Compound | Rewetting rate (%) [1] [%] | Absorber migration rate [2] [s]
CCCCCCCCOC(=O)CCCCC(=O)OCCCCCCCC [2-17] | 1.7 | 
CCCCCCCCCCCCOC(=O)CCCCCCCCCCC [2-18] | 1.8 | 
CCCCCCCCCCCCCC(=O)OCCCCCCCCCCCC [2-19] | 1.8 | 4
